Assay results as given in the supplement of paper PMC12889115.
Some of the results follow. Values are raw readings; no control value is given beside them.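 Primary screen: polymyxin B was added at a level permeabilizing Salmonella outer membranes while sparing inner membranes. DMSO wells, both with and without polymyxin B, established maximum growth. Plate-to-plate variation meant each plate was ranked on its own, and the lowest-OD600 compounds were selected as hits.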

System: Salmonella enterica serovar Typhimurium SL1344
Experiment: bacterial growth OD600 after 18 h with compound and polymyxin B; higher = more bacterial growth (less inhibition)
Conditions: 50 µM, Mueller-Hinton broth

Row | SMILES | bacterial growth OD600 (polymyxin B 0.75 µg/mL) | bacterial growth OD600 (polymyxin B 1 µg/mL)
1 | Cn1cc(CN2CCCC(CCc3c(F)cccc3F)C2)cn1 (stereo not given) | 0.677 | –
2 | CCOC(=O)N1CCC(NC2CCN(c3ccc(NC(=O)CCc4ccccc4)cc3)CC2)CC1 | 0.861 | –
3 | CSCCC(=O)N1CCCCC1C(=O)Nc1ccc(-n2nc(C)cc2C)cc1 (stereo not given) | – | 0.945
4 | Cc1cccc(-c2cccc(NC(=O)C3CCCN3C(=O)c3cn[nH]c3)c2)c1 (stereo not given) | 0.457 | –
5 | Cc1ocnc1C(=O)NC1CC(=O)N(Cc2ccccc2C(F)(F)F)C1 (stereo not given) | – | 1.09
6 | Cc1ncsc1CCC(=O)N1CCOc2ccc(CN3CCC(Oc4cccnc4)CC3)cc2C1 | 0.852 | –
7 | COCCNC(=O)c1cccc(OC2CCN(Cc3ccc(OC)cc3OC)CC2)c1 | – | 0.954
8 | CO[C@H]1[C@H](NC(=O)Cc2cccs2)c2ccccc2C12CCN(Cc1cccc3cccnc13)CC2 | 0.909 | –
9 | O=C(c1cc(Cl)ccc1OC1CCN(C2CCCC2)CC1)N1CCSCC1 | – | 0.943
10 | c1ccc(CNc2nc3nonc3nc2NC2CC2)cc1 | – | 0.968
11 | Cc1ccc(-c2cnnc(NCc3n[nH]c4c3CCCCC4)n2)o1 | 0.839 | –
12 | Cc1nc(C(C)NC(=O)c2cc(COc3ccccc3)[nH]n2)cs1 (stereo not given) | – | 0.923
13 | O=C(CCc1c[nH]c2ccccc12)NCCN1Cc2ccccc2OC(c2ccccc2)C1 (stereo not given) | 0.785 | –
14 | CN(Cc1cccc2cnccc12)C(=O)Cn1nnnc1CN1CCCC1 | 0.871 | –
15 | CCOC(=O)CC1CCCCN1Cc1nc(-c2cccc(OC)c2OC)oc1C (stereo not given) | 0.786 | –
16 | COC(=O)[C@@H](NC1CCN(c2ccc(NC(=O)COc3ccccc3)cc2)CC1)c1ccccc1 | 0.76 | –
17 | COc1cc(CC2(CCC(=O)NCC3CCCCC3)CCC(=O)N2)ccc1F (stereo not given) | 0.848 | –
18 | Cc1cc(CN(C)CC2(O)CCCN(Cc3cccc(F)c3F)C2=O)on1 (stereo not given) | – | 0.878
19 | OC(COc1cccc(CNC2CCCC2)c1)CN1CCCCCC1 (stereo not given) | 0.877 | –
20 | CS(=O)(=O)N1CCC(Oc2ccc(C(=O)N3CCCCCC3)cc2Cl)CC1 | 0.788 | –

Arranged by SMILES length (high to low): part of the list above.
Row | SMILES | bacterial growth OD600 (polymyxin B 0.75 µg/mL) | bacterial growth OD600 (polymyxin B 1 µg/mL)
4 | Cc1cccc(-c2cccc(NC(=O)C3CCCN3C(=O)c3cn[nH]c3)c2)c1 (stereo not given) | 0.457 | –
20 | CS(=O)(=O)N1CCC(Oc2ccc(C(=O)N3CCCCCC3)cc2Cl)CC1 | 0.788 | –
7 | COCCNC(=O)c1cccc(OC2CCN(Cc3ccc(OC)cc3OC)CC2)c1 | – | 0.954
